Assay results: the supplement of paper PMC3334620
Whole data set: some 33,000 sequences, median “E-score (-0.5 to 0.5)” near -0.0059, cut for the highest 2% near 0.26. The list shows a part of the results.

biological target: T1, Cin5 (UniProt P40917); test: PBM E-score (8-mer binding enrichment) (E-score (-0.5 to 0.5)); higher = stronger / more preferred TF binding; conditions: protein concentration: 100 nM; construct: GST-full length
T1 sequence: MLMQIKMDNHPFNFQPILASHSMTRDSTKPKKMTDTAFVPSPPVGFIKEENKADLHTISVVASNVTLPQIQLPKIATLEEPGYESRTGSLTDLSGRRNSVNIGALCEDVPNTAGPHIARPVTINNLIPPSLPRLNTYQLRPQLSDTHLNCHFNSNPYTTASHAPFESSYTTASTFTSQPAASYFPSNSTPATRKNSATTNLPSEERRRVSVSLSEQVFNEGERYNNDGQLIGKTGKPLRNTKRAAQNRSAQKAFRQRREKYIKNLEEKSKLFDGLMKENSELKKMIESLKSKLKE
Summary of the method: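 Full-length yeast transcription factors or their DNA-binding domains, GST-tagged and expressed with PURExpress, were applied at about 100-200 nM to universal all-10-mer Agilent arrays. These arrays had been made double-stranded by primer extension on fresh or once-stripped slides. Detection used fluorescent anti-GST, normalisation used masliner, and E-scores for ungapped eight-base words pooled with reverse complements came from the Universal PBM Analysis Suite.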

Row | Sequence | PBM E-score
1 | TACAGGAA | 0.0717
2 | CTACCTTA | 0.0432
3 | GTACGTCA | 0.172
4 | AGCGTGAT | 0.0865
5 | CCTTTCAC | -0.0027
6 | ATTGGCCG | 0.02
7 | CAGAGGAG | -0.262
8 | CAACGCTC | -0.216
9 | CCTTGGCC | -0.35
10 | GCATATTA | 0.246
11 | GCGTTTCC | 0.0818
12 | AGTCGTAG | -0.16
13 | GTTTTCTA | 0.132
14 | ATAATCCG | 0.235
15 | GCCCTGTA | 0.0321
16 | AGTACTTC | 0.199
17 | GAAAAAGA | 0.104
18 | GCAAAAAA | 0.157
19 | ATTCCGGA | 0.256
20 | GCGTTACA | 0.0658
21 | ATCTGTGG | -0.0485
22 | GCAGCAGA | -0.106

Row | Sequence | PBM E-score
23 | GCGCGGGA | 0.012
24 | GCGCCACC | -0.183
25 | ATTTCATC | 0.183
26 | CAGGAATC | 0.0947
27 | TATAATGA | 0.21
28 | GGTTCAAA | -0.0366
29 | ATTAAGTG | 0.156
30 | CGCACCAG | -0.0346
31 | AGAACCAG | -0.149
32 | CGTATCCC | -0.115
33 | GAGCTCCA | -0.092
34 | AGCATCAC | 0.0209
35 | ATAATTAA | 0.303
36 | ACAAGTGT | -0.0377
37 | ACATGGAG | -0.173
38 | AAGACATT | -0.0512
39 | GATCGGTA | 0.12
40 | ACGATCTG | -0.109
41 | AGCAGGGC | -0.161
42 | GCACCGCC | -0.171
43 | GCATGAAA | 0.0866
44 | CTGGTATC | -0.0697

Copied from the list.
AGCATCAC | PBM E-score: 0.0209
CAGAGGAG | PBM E-score: -0.262
GCGTTTCC | PBM E-score: 0.0818
ATTGGCCG | PBM E-score: 0.02

Some of the entries above in a different format:
Row,Sequence,PBM E-score
28,GGTTCAAA,-0.0366
32,CGTATCCC,-0.115

The listing continues:

Row | Sequence | PBM E-score
45 | CGCCCTGA | 0.043
46 | ATAAACAC | -0.00689
47 | GCCAAAAA | -0.014
48 | TGGGACAA | 0.0574
49 | CGCCGATC | -0.0423
50 | ACGAACAG | -0.126
51 | ACATTCCT | -0.0761
52 | CATCTCTA | 0.121
53 | AAGAACCG | 0.0989
54 | GACCGCAA | 0.111
55 | GCGGTTCA | -0.0752
56 | GCAACCTA | -0.0779
57 | CCAGCACG | -0.0764
58 | CCCCCAAG | -0.367
59 | AGCCGAAC | 0.00618
60 | CTCAGGAC | -0.00729
61 | ACTTCTAT | 0.0803
62 | CCTCCAGG | -0.325
63 | AACTACAT | 0.122
64 | CACAAACC | 0.0346
65 | ATGCACGA | 0.0769
66 | TAACCAAA | 0.175

Row | Sequence | PBM E-score
67 | TGGGCCCA | 0.0488
68 | ACTAGGTA | 0.0879
69 | CCGACATA | 0.0654
70 | AAAAGGCT | -0.0964
71 | TGACTAAA | -0.0431
72 | CTAAATAC | 0.085
73 | CTTGATGA | 0.214
74 | ACCTGTCG | -0.0649
75 | CGTCGAAG | -0.0709
76 | CGAAGATC | -0.0401
77 | CGTCCATC | -0.0657
78 | AGTGGTAA | 0.0989
79 | ATTGAGAA | 0.203
80 | ACCGTCGA | -0.229
81 | GGCGTAAA | 0.017
82 | AGAAATCC | -0.0149
83 | AGGGATTA | 0.0341
84 | CGAAGAAG | 0.061
85 | GAACGGGA | -0.0917
86 | ACCCAAGC | -0.209
